These are yes or no findings as the source states them, for the method shown. Some binding calls cover weakened binding; strength is not graded here.
Molecular target: chymotrypsin-treated Cry3Bb (Bacillus thuringiensis) (UniProt Q06117)
Test: ELISA-based binding assay: plates coated with chymotrypsin-treated Cry3Bb, biotinylated TmCad1-TBR, streptavidin-HRP detection

Amino acid sequences for entries named in this document (tags omitted). Residues count along the entry.
UniProt Q06117, residues 162-652: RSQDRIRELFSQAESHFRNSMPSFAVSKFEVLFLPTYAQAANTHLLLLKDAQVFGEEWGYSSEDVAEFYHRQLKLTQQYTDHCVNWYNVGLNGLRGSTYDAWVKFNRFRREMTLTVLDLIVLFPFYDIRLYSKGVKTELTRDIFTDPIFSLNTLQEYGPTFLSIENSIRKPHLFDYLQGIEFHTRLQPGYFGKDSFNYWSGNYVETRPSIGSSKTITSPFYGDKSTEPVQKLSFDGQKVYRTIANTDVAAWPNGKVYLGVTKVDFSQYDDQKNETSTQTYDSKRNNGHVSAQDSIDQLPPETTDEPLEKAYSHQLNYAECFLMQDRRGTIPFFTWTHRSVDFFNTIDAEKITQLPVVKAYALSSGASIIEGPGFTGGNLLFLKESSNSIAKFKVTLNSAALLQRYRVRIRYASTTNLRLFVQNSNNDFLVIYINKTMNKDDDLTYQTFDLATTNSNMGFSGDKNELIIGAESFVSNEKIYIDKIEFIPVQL

B1: TmCad1-TBR cadherin fragment from the Tenebrio molitor cadherin (T. molitor cadherin Toxin Binding Region) (receptor)
chain: MKQWYQRRVAITAGKDTTSKDKLQYNIDNITPSNLDLDIKSAFTMNTQSGDITINFEVKDSMEGYFTLDLSVQDEEPENHKADATLKIYIVTSKNTVVFRFENDQETVSDKAGDIKSVLDEEFQYETKVEAPTGNTTDGTPLTRSPVFFLNLNTNEPVDATEILKKVTNVDVFQRLKNNFSKVGLVLLSFDSSSETNENLEAHHHHHH
modifications: biotinylated (sites not given)
notes: also called CR12-MPED of TmCad1
binding: binds
